Reference: patent EP4595966A1, “USE OF NPY/Y5R INHIBITOR IN TREATING LIVER METASTASIS” (Friedrich-Alexander-Universität Erlangen-Nürnberg, priority 2024, dated 2025)

Test system: B16 melanoma cells (liver metastasis)
Assay: Spleen-liver metastasis model with Y5R inhibitor treatment
Format: in vivo, C57BL/6 mice
Excerpt: • Figure 1 A-B. Boyden chamber analysis and representative images (10-fold original magnification) of chemotaxis of human melanoma cells (SkMel28) towards recombinant NPY (lower chamber) with or without application of Y5R specific inhibitor CGP71683 (Y5Ri) (upper chamber) compared to migration towards serum free medium (n = 9). Arrowheads indicate migrated cells. • Figure 2. Representative images of colony number and colony size of human melanoma cells (SkMel28) in clonogenicity assays with application of increasing concentrations of Y5R inhibitor (Y5Ri) (n = 3). • Figure 3. Schematic illustration of the experimental procedure: splenic injection of murine melanoma cells (B16) in C57BL/6 mice on day 0; intraperitoneal injection of Y5R inhibitor CGP71683 (Y5Ri) (15 mg/kg body weight per injection) or solvent only (DMSO) as control on indicated days; end of experiment eight days after cell implantation. • Figure 4. Explanted metastases bearing spleens and livers of DMSO (control) and Y5Ri treated mice after splenic injection of B16 melanoma cells. • Figure 5. Macroscopic classification of livers from DMSO (n = 11) and Y5Ri treated mice (n = 9) into very low / low versus moderate / high liver metastasis. • Figure 6. A. CHK2 level in NPY^-/- mice compared to control WT mice measured by IHC analysis. B. CHK2 level in Y5Ri-treated mice compared to control DMSO-treated mice measured by IHC analysis. • Figure 7. […] A. Quantification of NPY mRNA expression levels in liver tissues from mice treated with control LNPs ("Control", LNPs bearing control siRNA pool, n = 11) and from mice treated with LNPs bearing siRNA pool targeting murine NPY ("LNP-siNPY", n = 11). B. Quantification of NPY protein levels in liver tissues from mice treated with control LNPs (n = 11) and LNP-siNPY treated mice (n = 11). • Figure 9 A-B. ELISA based protein expression analysis of absolute NPY levels in liver tissues and serum samples from LNP-siNPY treated mice (n = 10) compared to mice treated with control LNPs (LNPs bearing control siRNA pool, n = 11) after splenic melanoma cell injection. • Figure 10. […] A. Quantification of number of metastases in liver tissues from LNP-siNPY treated mice (n = 10) compared to mice treated with control LNPs (LNPs bearing control siRNA pool, n = 11). B. Quantification of metastases size in liver tissues from LNP-siNPY treated mice (n = 10) compared to mice treated with control LNPs (LNPs bearing control siRNA pool, n = 11). • Figure 13. […] A. Quantification of pERK protein expression in metastatic liver tissue samples of LNP-siNPY treated mice (n = 6) compared to mice treated with control LNPs (LNPs bearing control siRNA pool, n = 6). […]

## Nc1nc(NC[C@H]2CC[C@H](CNS(=O)(=O)c3cccc4ccccc34)CC2)nc2ccccc12 [Y5Ri, N-[[trans-4-[[(4-amino-2-quinazolinyl)amino]methyl]cyclohexyl]methyl]-1-naphthalenesulfonamide]
mRNA levels
  Y2R and Y5R expression levels in liver metastatic tissues: did not affect
Treated mice vs controls
  immunohistochemical staining of CD3, CD4 and CD8 of liver metastatic tissues (immune cell infiltration/inflammation): no evidence for NPY-Y5R-signaling associated effects on immune cell infiltration/inflammation
Upon Y5Ri treatment
  NPY and Y1R expression in liver metastatic tissues: upregulated
  systemic NPY levels: upregulated
